Measurements taken from PubChem BioAssay AID2685 (National Center for Advancing Translational Sciences (NCATS), 2010).
The other results are listed elsewhere or left out. These are further read-outs of the screen, such as a control signal, another cell line or another target. No call is given for them. Compounds called inactive in the main read-out are mostly missing here. Words in brackets tell the shape of the fitted curve; partial curves, single points and poor fits give uncertain potencies.

Assay: qHTS Assay for Lipid Storage Modulators in Drosophila S3 Cells;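 on cell number change: cells counted by Cell Tracker Red CMTPX staining in the red channel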
Details: BODIPY lipid droplet fluorescence, 18-24 h; for cell number change: measured here: cell count max response, cells fed with added oleic acid
Summary of the method: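 Drosophila S3 cells got compounds at several concentrations plus oleic acid (400 uM solution). Laser-scanning cytometry with 488 nm excitation read lipid droplets at 500-530 nm and cells at 575-640 nm. Percent activity was relative to 20 uM Triacsin C.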

[1] = measured here: cell number channel AC50, cells fed with added oleic acid
[2] = measured here: lipid fluorescence (Fed channel) AC50, cells fed with added oleic acid

SMILES | cell number change | AC50 [1] | AC50 [2]
COc1ccc(CC(=O)Nc2ccc(OC)nc2)cc1 | 5.68% | – | –
CC(C)C[C@H](NC(=O)c1nc[nH]c1C(=O)NC1CCNCC1)C(=O)OCc1ccccc1 | -19.1% | 0.00517 µM [falling, full curve, poor fit] | 0.00461 µM [falling, full curve, poor fit]
COc1cc(/C(C)=N/NC(=O)C(O)(c2ccccc2)c2ccccc2)ccc1O | -37.5% | 0.461 µM [falling, full curve] | 0.58 µM [falling, full curve]
CCC(=O)Nc1ccc(-c2nc3ccccc3c(=O)o2)cc1 | 5.35% | 1.64 µM [falling, single point] | –
O=[N+]([O-])c1cccc(/C=N/Nc2nc(NCc3ccccc3)nc(N3CCOCC3)n2)c1 | 23.5% | 1.84 µM [rising, full curve, poor fit] | 0.58 µM [rising, full curve]
Cc1nc2nc(SCC(=O)NCCCN3CCCCCC3)nn2c(C)c1Cc1ccccc1 | -3.81% | – | –
O=C1CC(Nc2ccccc2)C(=O)N1Cc1ccccc1 (stereo unspecified) | 31.6% | 7.31 µM [rising, partial curve] | 2.06 µM [falling, partial curve]
CC(=O)c1cc2c(cc1NC(=O)CN1Cc3ccccc3C1=O)OCO2 | 19.8% | – | –
CCS(=O)(=O)N1CCC(C(=O)NCCN2CCN(Cc3ccccc3)CC2)CC1 | -9.74% | – | –
O=C(CN1CCN(C(=O)N2CCOCC2)CC1)Nc1ccc(Br)cc1 | -3.76% | – | –
O=C(CN1CCN(Cc2ccc(F)cc2Cl)C1=O)NCCc1ccc(Cl)cc1 | – | – | 6.51 µM [falling, single point]
CC(=O)Nc1cccc(C(=O)OCc2ccccc2)c1 | -58.8% | 29.1 µM [falling, single point] | –
O=C(COc1ccc(Cl)cc1Cl)Nc1ccccc1NS(=O)(=O)c1cccs1 | -39.9% | 29.1 µM [falling, single point] | 29.1 µM [falling, partial curve, poor fit]
COc1ccc(C(=O)C2CCCN(S(=O)(=O)N(C)C)C2)c(C)c1 (stereo unspecified) | 0.338% | – | 0.92 µM [rising, full curve]
CCOC(=O)C1=C(C)N=C2c3ccccc3C(=O)C2C1c1ccc(Br)cc1 (stereo unspecified) | -38.9% | 29.1 µM [falling, single point] | –
COc1ccc(CN(C(=O)Cn2nnc(-c3ccc(C)o3)n2)C(C(=O)NCC2CCCO2)c2ccco2)cc1 (stereo unspecified) | -46.6% | 14.6 µM [falling, partial curve] | 9.2 µM [falling, partial curve]
COc1ccc(CNC(=O)COC(=O)c2ccc(Br)cc2)cc1 | -14.2% | – | 2.31 µM [falling, partial curve, poor fit]
CC(=O)Nc1ccc(SCC(=O)N(CCC#N)c2cc(C)cc(C)c2)cc1 | 96.7% | 20.6 µM [rising, single point] | –
O=C(Nc1ccccc1F)c1cccc(C(=O)Nc2ccccc2F)c1 | 15% | – | 16.4 µM [rising, single point]
COc1ccc(Cl)cc1NC(=O)C(C)Sc1nnc(C2CC2)n1C1CC1 (stereo unspecified) | 5.77% | – | –

SMILES | cell number change | AC50 [1] | AC50 [2]
CSc1nsc(SCc2ccc(Cl)cc2)n1 | 13.9% | – | 23.1 µM [rising, partial curve]
Cc1ccc2cccc(O)c2[n+]1[O-] | 11% | – | –
CC(C)Cc1nnc(NC(=O)CCC(=O)N2CC(C)CC(C)C2)s1 (stereo unspecified) | 16.5% | – | 6.51 µM [rising, single point]
CCn1c(SCC(=O)N2CC(C)OC(C)C2)nc2c([nH]c3ccccc32)c1=O (stereo unspecified) | -22.5% | – | 2.06 µM [falling, partial curve]
CC(=O)Cc1nsc(NC(=O)c2ccc(-c3cccc(C(F)(F)F)c3)o2)n1 | 6.36% | – | 0.92 µM [rising, full curve, poor fit]
Cc1c(-c2ccc(Cl)cc2)oc(=O)c2c(N)n(-c3ccccc3)nc12 | -31.1% | 8.2 µM [falling, partial curve] | 4.11 µM [falling, partial curve]
CCCCn1c(CNC(=O)C23CC4CC(CC(C4)C2)C3)nnc1SC(C)CC (stereo unspecified) | -25.9% | – | 11.6 µM [falling, partial curve, poor fit]
COc1cc(C(=O)N2CCC(NC(=O)C(Cc3ccc(C(C)C)cc3)NC(C)=O)CC2)cc(OC)c1OC (stereo unspecified) | 4.03% | – | –
COc1cccc(NC(=O)C(C)SCc2ccccc2)c1 (stereo unspecified) | 161% | 23.1 µM [rising, partial curve] | –
CC(C)(O)C(=O)N/N=C\c1ccc(OC/C=C/c2ccccc2)cc1 | 47% | 18.4 µM [rising, partial curve] | 29.1 µM [rising, single point]
CCOC(=O)NC(c1ccc(C(C)C)cc1)C(Cl)(Cl)Cl (stereo unspecified) | -32.1% | 0.00461 µM [falling, full curve, poor fit] | 13 µM [falling, partial curve]
Cc1ccc(CNC(=O)Cn2cnc(S(=O)(=O)N3CCC(C)CC3)c2)o1 | 8.36% | – | –
CC(C)(C)CC(C)(C)NC(=O)c1ccc2snnc2c1 | -32.4% | 29.1 µM [falling, single point] | 29.1 µM [falling, single point]
O=C(Nc1nc(-c2ccc(Cl)cc2)cs1)C1CCCO1 (stereo unspecified) | 19.1% | – | –
C[C@H](NC(=O)c1nc[nH]c1C(=O)N(C)Cc1ccccc1)c1ccccc1 | -0.859% | 1.84 µM [falling, partial curve] | –
Cc1ccc(S(=O)(=O)NCc2c(-c3ccccc3)noc2C)cc1 | -15.1% | – | 0.00731 µM [falling, full curve, poor fit]
Cc1cccc2c(=O)c(-c3ccc(Cl)cc3)c(NC(=O)c3ccco3)oc12 | -4.58% | – | 29.1 µM [rising, single point]
COc1ccccc1C(=O)COC(=O)CCCN=C1NS(=O)(=O)c2ccccc21 | – | – | 23.1 µM [rising, single point]
Cn1cc(S(=O)(=O)NCC2CCCO2)c(=O)n(C)c1=O (stereo unspecified) | -26.4% | – | 0.82 µM [falling, full curve]
O=C(O)/C=C\C(=O)Nc1cccc(NC(=O)c2ccccc2)c1 | 9.15% | – | 0.00651 µM [rising, full curve, poor fit]

Reprinted from the entries so far, 4 compounds:
SMILES | cell number change | AC50 [1] | AC50 [2]
COc1cc(C(=O)N2CCC(NC(=O)C(Cc3ccc(C(C)C)cc3)NC(C)=O)CC2)cc(OC)c1OC (stereo unspecified) | 4.03% | – | –
COc1cccc(NC(=O)C(C)SCc2ccccc2)c1 (stereo unspecified) | 161% | 23.1 µM [rising, partial curve] | –
CC(C)(O)C(=O)N/N=C\c1ccc(OC/C=C/c2ccccc2)cc1 | 47% | 18.4 µM [rising, partial curve] | 29.1 µM [rising, single point]
CCOC(=O)NC(c1ccc(C(C)C)cc1)C(Cl)(Cl)Cl (stereo unspecified) | -32.1% | 0.00461 µM [falling, full curve, poor fit] | 13 µM [falling, partial curve]

The listing continues:

SMILES | cell number change | AC50 [1] | AC50 [2]
COc1ccc(N(CC(=O)NCc2ccccc2)S(=O)(=O)c2c(C)nn(C)c2C)cc1 | 39.3% | 3.26 µM [rising, partial curve] | 5.8 µM [rising, partial curve]
COC(=O)c1cc(S(=O)(=O)NCCCc2ccco2)c[nH]1 | -12.2% | – | 29.1 µM [falling, single point]
CCNc1nc(NC(C)C)nc(N(C#N)CCOc2ccccc2)n1 | -36.6% | – | 29.1 µM [falling, single point]
C(=C\c1ccccc1)/CSc1nnc(-c2cccnc2)n1Cc1ccco1 | -17.3% | – | 2.31 µM [rising, full curve]
COC(=O)COc1ccccc1C(=O)Nc1ccc(OC)cc1 | 16.3% | – | 6.51 µM [rising, single point]
COc1cccc(CC(=O)NC2CCCN(Cc3ccc(Cl)cc3)C2)c1 (stereo unspecified) | 1.84% | – | –
Cc1ccc2nc(NC(=O)CNS(=O)(=O)c3ccc(Br)s3)sc2c1 | -39.3% | 32.6 µM [falling, single point] | 0.13 µM [falling, full curve, poor fit]
COc1ccc(/C=C/C(=O)N(C)CC(=O)Nc2cccc(F)c2)cc1S(=O)(=O)N1CCCCC1 | -9.61% | – | –
CCOc1cc(NC(=S)Nc2ccccc2)c(OCC)cc1NC(=O)c1ccc(OC)cc1 | -8.62% | – | –
COCCn1nnnc1CN(CCc1ccccc1)Cc1cc2ccc(C)cc2[nH]c1=O | -12% | – | –
O=C1N/C(=C/c2ccc(N3CCOCC3)o2)C(=O)N1c1cccc(Cl)c1 | -3.18% | – | 5.62 µM [falling, single point]
CCN(CC)c1ccc(/C=N/Nc2nc(C)cc(C)n2)c(O)c1 | – | – | 9.2 µM [falling, partial curve, poor fit]
COc1ccc(CC(=O)Nc2cc(Cl)ccc2C(=O)O)cc1 | 21.7% | – | 1.84 µM [falling, partial curve]
COc1ccc(CCCc2nnc(SCC(=O)Nc3nccs3)n2C)cc1C | -176% | 29.1 µM [falling, single point] | 29.1 µM [falling, single point]
COc1ccc(NC(=O)CN(C)C(=O)c2cn(-c3ccccc3)nc2-c2ccc(OC)cc2)cc1 | -15% | – | 16.4 µM [rising, partial curve, poor fit]
COc1cc(OC)cc(C(=O)NNC(=O)CNC(=O)c2cccs2)c1 | 37.2% | 29.1 µM [rising, single point] | 25.9 µM [rising, partial curve, poor fit]
O=C(COC(=O)/C=C/c1cccc(C(F)(F)F)c1)Nc1cccc2ccccc12 | -3.29% | – | 16.4 µM [falling, single point]
CCCC(=O)Nc1c2c(nn1-c1ccc(C)cc1C)CSC2 | -71.1% | 29.1 µM [falling, partial curve, poor fit] | 0.58 µM [rising, partial curve, poor fit]
O=S(=O)(c1ccc(S(=O)(=O)N2CCCC2)cc1)N1CCCCCC1 | -8.65% | – | 29.1 µM [rising, single point]
